Type in all cases: biochemical
Data set [1] is described as follows: Enzyme-catalyzed acylation of 1,2-ethanediol with ethyl acetate as acyl donor (Example 2). On the procedure: (§1) Each diol was dissolved to a concentration of 20 mM together with 5 mM of 3-hexanone in ethyl acetate, ≧99% from Fluka, which was used as acyl donor and solvent. Reactions were started by adding 4 ml reaction solution to 20 mg enzyme carrier beads loaded with either wild-type or T40A mutated CALB. Reactions were run at 29° C. on a HLC rotating thermo block. Aliquots of 50 μl were taken, filtered through wool in a Pasteur pipette and diluted with 50 μl ethyl acetate prior to analysis. The 3-hexanon used as internal standard were present in the reaction solution throughout both reaction and analysis.
(§2) 5 mM 3-hexanone was used as internal standard in the reaction mixtures together with 20 mM diol. Aliquots were taken during the reaction by taking 50 μl of reaction sample. The samples were filtered though wool together with 50 μl ethyl acetate, thereby any remaining enzyme were removed and the reaction samples were diluted by a factor of 2 prior to analysis.
(§3) The reactions catalyzed by the T40A-mutant were rerun with 100 mg enzyme carrier beads for determination of maximum monoester yield. […]
(§4) All reactions were analyzed on GC, Hewlett Packard 5890 series II. Two different 25 m×0.32 mm WCOT fused silica columns were used, depending on the different substrates and products that were analyzed. […]
(§5) The response factor for each diol was determined in relationship to 3-hexanone. When all diol and mono-ester had converted to di-ester, the response factor for the di-ester could be determined in relationship to […]. The concentration of mono-ester in each reaction was determined by subtracting the concentration of di-ester from the starting concentration of diol. […]
(§6) The reaction rates are dependent on enzyme concentrations and the kcat/KM towards the substrates. By fitting the concentrations measured over time into the equations and using the enzyme concentration determined by active site titration, the following results were obtained.

Data set [2] in a line: Enzyme-catalyzed acylation of 1,3-propanediol with ethyl acetate as acyl donor (Example 2). On the procedure:
as §1, §2, §3, §4, §5, §6

Data set [3] can be described thus: Enzyme selectivities and specificities towards 1,2-ethanediol with vinyl acetate or vinyl butyrate in MTBE (Example 7). On the procedure: (§7) Reactions using the CALB mutants as described in Example 5 and Example 6 were run with two different straight chain primary diols: 1,2-ethanediol, ≧99.5% from MERCK and 1,4-butanediol, ≧99% from Aldrich. Two different acyl donors were used: vinyl acetate, ≧99% from Fluka and vinyl butyrate, >99% from Fluka. Decane, ≧99% from Fluka, was used as internal standard. MTBE, 99.5% from Lab-Scan was used as solvent.
(§8) Each diol was dissolved to a concentration of 100 mM together with 1 M of the acyl donor and 20 mM decane in MTBE. Reactions were started by adding 3 ml reaction solution to a specific amount of enzyme carrier beads. Different amounts of enzyme carrier beads were used for the different reactions. For reactions with 1,2-ethanediol and vinyl acetate, 19.7 mg wild type, 22.5 mg A282L, 50.5 mg A281V, and 45.5 A281E CALB were used. […]
(§9) All reactions were analyzed on GC, Hewlett Packard 5890 series II. Two different 25 m×0.32 mm WCOT fused silica columns were used, depending on the different substrates and products that were analyzed. […] The response factor for each diol was determined in relationship to decane. When all diol and mono-ester had converted to di-ester, the response factor for the di-ester could be determined in relationship to decane. The concentration of mono-ester in each reaction was determined by subtracting the concentration of di-ester from the starting concentration of diol.

Data set [4] in a line: Enzyme selectivities and specificities towards 1,4-butanediol with vinyl acetate or vinyl butyrate in MTBE (Example 7). The protocol: as §7, §8, §9

For the molecule “T40A: CALB mutant with single mutation Thr40Ala (SEQ ID NO: 4)”, in data set [1], the “ΔΔG, diol-monoester” value worked out at 1.22 kcal/mol and the “ΔΔΔG, T40A-WT” value came to 0.837 kcal/mol. Besides, in data set [2], the “ΔΔG, diol-monoester” value is 0.526 kcal/mol and the “ΔΔΔG, T40A-WT” value came to 0.574 kcal/mol.

B1: WT: non-mutated Candida antarctica lipase B (CALB), SEQ ID NO: 2, immobilized on carrier beads (protein, listed as Candida antarctica)
chain: LPSGSDPAFSQPKSVLDAGLTCQGASPSSVSKPILLVPGTGTTGPQSFDSNWIPLSAQLGYTPCWISPPPFMLNDTQVNTEYMVNAITTLYAGSGNNKLPVLTWSQGGLVAQWGLTFFPSIRSKVDRLMAFAPDYKGTVLAGPLDALAVSAPSVWQQTTGSALTTALRNAGGLTQIVPTTNLYSATDEIVQPQVSNSPLDSSYLFNGKNVQAQAVCGPLFVIDHAGSLTSQFSYVVGRSALRSTTGQARSADYGITDCNPLPANDLTPEQKVAAAALLAPAAAAIVAGPKQNCEPDLMPYARPFAVGKRTCSGIVTP
modifications: immobilized on carrier beads
For the molecule B1, the “ΔΔG, diol-monoester” value in data set [1] was 0.382 kcal/mol; in data set [2], -0.0406 kcal/mol. The ΔΔG was 0.14 kcal/mol in data set [3] (vinyl acetate), -0.406 kcal/mol in data set [3] (vinyl butyrate), -0.454 kcal/mol in data set [4] (vinyl acetate) and -0.406 kcal/mol in data set [4] (vinyl butyrate).

Source of the values: patent US8715970B2, “Enzymatically catalyzed method of preparing mono-acylated polyols” (BASF SE, priority 2009, dated 2014).
